Reference: PubChem BioAssay AID504804 (Drosophila RNAi Screening Center, 2011)
Test: 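dsRNAs that improve Kc cell survival under doxorubicin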 (primary screen). System: Drosophila Kc cells. Reagent: long dsRNA against Drosophila genes, 0.5 µg dsRNA per well. Time to read-out: 96 h (48 h knock-down, then 48 h drug). Treatment: doxorubicin 5 µg/ml for 48 h, added 48 h after dsRNA. Measurement: 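Viability measured as cellular ATP by luminescence after 48 h knock-down then 48 h doxorubicin at 5 µg/ml; unnormalised plate counts for each replicate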. Scale: raw ATP luminescence: higher = more viable cells, protection from doxorubicin. Call rule: 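z-score of 2 or more over plate mean in both duplicates, retained only when retests and separate dsRNAs confirm the protection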.
In all, the deposit lists about 19,000 reagents; below is an unselected part of those that have a named target and a result. Over the whole deposit, 47 (0.25%) were called active. 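Signals are raw, not normalised; exact z-scores behind calls not deposited; actives needed confirmation, so some wells reaching 2 SD are inactive.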 Names joined by + are all predicted targets of the reagent. No sequences are given here.

gene | dsRNA | SD above plate mean | raw ATP luminescence, replicate 1 | raw ATP luminescence, replicate 2 | activity call
CG7483 | DRSC16249 | – | 71633 | 59190 | inactive
CG7394 | DRSC10835 | – | 55440 | 68610 | inactive
CG8243 | DRSC07122 | – | 55900 | 86023 | inactive
CrebA (Cyclic-AMP response element binding protein A) | DRSC11122 | – | 31040 | 29633 | inactive
Nup214 (Nucleoporin 214kD) | DRSC04421 | – | 74890 | 74180 | inactive
CG12848 | DRSC04128 | – | 46160 | 67523 | inactive
dsx-c73A (doublesex cognate 73A) | DRSC09435 | – | 89163 | 87300 | inactive
dsx-c73A (doublesex cognate 73A) | DRSC09914 | – | 54520 | 53013 | inactive
dsx-c73A (doublesex cognate 73A) | DRSC10429 | – | 75210 | 63893 | inactive
lft (lowfat) | DRSC02236 | – | 46417 | 81277 | inactive
CG14543 | DRSC14887 | – | 57750 | 42250 | inactive
Sp1 | DRSC17622 | – | 2.09e5 | 1.53e5 | inactive
Sp1 | DRSC18717 | – | 3.19e5 | 2.79e5 | inactive
Cpr65Eb (Cuticular protein 65Eb) | DRSC11026 | – | 82973 | 83173 | inactive
CG13708 | DRSC08317 | – | 78913 | 79760 | inactive
Lsm12a (LSM12 homolog a) | DRSC19702 | – | 4.73e5 | 3.87e5 | inactive
eIF3d2 (eukaryotic translation initiation factor 3 subunit d2) | DRSC15651 | – | 46357 | 21773 | inactive
CG32219 | DRSC09641 | – | 56417 | 75083 | inactive
Cyp305a1 (Cytochrome P450 305a1) | DRSC11126 | – | 23707 | 23893 | inactive
fwd (four wheel drive) | DRSC08580 | – | 60407 | 67677 | inactive
CG32196 | DRSC09548 | – | 81983 | 1.10e5 | inactive
CG33181 | DRSC17971 | – | 40530 | 40360 | inactive
OtopLb (Otopetrin-like b) | DRSC00594 | – | 97403 | 68950 | inactive
Ugt35D1 (UDP-glycosyltransferase family 35 member D1) | DRSC15107 | – | 58340 | 62600 | inactive
dod (dodo) | DRSC20577 | – | 1.92e5 | 1.99e5 | inactive
CG30105 | DRSC05668 | – | 1.25e5 | 1.26e5 | inactive
COX5A (Cytochrome c oxidase subunit 5A) | DRSC16611 | – | 50773 | 41623 | inactive
wcd (wicked) | DRSC07051 | – | 52263 | 53387 | inactive
CG10814 | DRSC06004 | – | 87220 | 68770 | inactive
CG13123 | DRSC02219 | – | 40063 | 63087 | inactive
robo1 (roundabout 1) | DRSC04712 | – | 44427 | 51303 | inactive
CG14265 | DRSC18591 | – | 60660 | 47510 | inactive
Phb2 (Prohibitin 2) | DRSC06512 | – | 2.05e5 | 1.88e5 | inactive
CG8641 | DRSC11028 | – | 67167 | 82193 | inactive
Ir68b (Ionotropic receptor 68b) | DRSC10251 | – | 98923 | 74200 | inactive
Dop1R1 (Dopamine 1-like receptor 1) | DRSC13021 | – | 2.38e5 | 2.75e5 | inactive
Dop1R1 (Dopamine 1-like receptor 1) | DRSC16652 | – | 93530 | 61260 | inactive
CR10032 (pseudo) | DRSC12499 | – | 61633 | 58813 | inactive
Coq4 + frc | DRSC10381 | – | 38090 | 41160 | inactive
Coq4 + frc | DRSC10382 | – | 1.03e5 | 60930 | inactive
aspr (asperous) | DRSC20689 | – | 3.89e5 | 3.68e5 | inactive
aspr (asperous) | DRSC20690 | – | 3.46e5 | 3.49e5 | inactive
rgn (regeneration) | DRSC11609 | – | 25490 | 19720 | inactive
ENGase (Endo-beta-N-acetylglucosaminidase) | DRSC19952 | – | 1.58e5 | 1.83e5 | inactive
ENGase (Endo-beta-N-acetylglucosaminidase) | DRSC19953 | – | 1.86e5 | 1.92e5 | inactive
CG8929 | DRSC07298 | – | 58013 | 43340 | inactive

Part of the list above, reformatted.
{"gene":"dsx-c73A (doublesex cognate 73A)","dsRNA":"DRSC09435","raw ATP luminescence, replicate 1":89163,"raw ATP luminescence, replicate 2":87300,"activity call":"inactive"}
{"gene":"dsx-c73A (doublesex cognate 73A)","dsRNA":"DRSC09914","raw ATP luminescence, replicate 1":54520,"raw ATP luminescence, replicate 2":53013,"activity call":"inactive"}
{"gene":"dsx-c73A (doublesex cognate 73A)","dsRNA":"DRSC10429","raw ATP luminescence, replicate 1":75210,"raw ATP luminescence, replicate 2":63893,"activity call":"inactive"}
{"gene":"lft (lowfat)","dsRNA":"DRSC02236","raw ATP luminescence, replicate 1":46417,"raw ATP luminescence, replicate 2":81277,"activity call":"inactive"}

Continued:
gene | dsRNA | SD above plate mean | raw ATP luminescence, replicate 1 | raw ATP luminescence, replicate 2 | activity call
kek4 (kekkon 4) | DRSC03220 | – | 92367 | 73557 | inactive
CG10300 | DRSC14225 | – | 41250 | 67010 | inactive
Srp19 (Signal recognition particle 19) | DRSC11288 | – | 66973 | 81303 | inactive
CG32407 | DRSC09789 | – | 57483 | 76017 | inactive
Dscam4 (Down syndrome cell adhesion molecule 4) | DRSC08911 | – | 1.22e5 | 1.08e5 | inactive
Dscam4 (Down syndrome cell adhesion molecule 4) | DRSC08913 | – | 1.48e5 | 1.59e5 | inactive
Dscam4 (Down syndrome cell adhesion molecule 4) | DRSC10031 | – | 54060 | 72553 | inactive
Dscam4 (Down syndrome cell adhesion molecule 4) | DRSC10329 | – | 53773 | 72470 | inactive
Dscam4 (Down syndrome cell adhesion molecule 4) | DRSC10765 | – | 72873 | 75750 | inactive
FASN1 (Fatty acid synthase 1) | DRSC00268 | – | 1.08e5 | 67293 | inactive
Ssb-c31a (Single stranded-binding protein c31A) | DRSC03443 | – | 36927 | 77620 | inactive
CG6204 | DRSC15991 | – | 33587 | 42017 | inactive
CG7916 | DRSC01901 | – | 78127 | 83880 | inactive
CG3649 | DRSC04400 | – | 89203 | 59280 | inactive
CG10669 | DRSC14261 | – | 52420 | 52150 | inactive
Ir94e (Ionotropic receptor 94e) | DRSC15229 | – | 69440 | 72480 | inactive
AttD (Attacin-D) | DRSC16272 | – | 2.02e5 | 2.09e5 | inactive
CG7320 | DRSC10810 | – | 36007 | 35060 | inactive
CG4009 | DRSC15536 | – | 1.08e5 | 92300 | inactive
alpha-Est8 (alpha-Esterase-8) | DRSC12620 | – | 58153 | 57123 | inactive
CG13679 | DRSC10037 | – | 45923 | 62033 | inactive
CG12682 | DRSC17873 | – | 56260 | 50740 | inactive
cnir (cornichon related) | DRSC00499 | – | 40747 | 29683 | inactive
CG7246 | DRSC18422 | – | 1.69e5 | 2.08e5 | inactive
CG10151 | DRSC05974 | – | 58563 | 49180 | inactive
mthl12 (methuselah-like 12) | DRSC12964 | – | 1.85e5 | 1.39e5 | inactive
TwdlP (TweedleP) | DRSC14734 | – | 33490 | 50870 | inactive
CG9896 | DRSC03962 | – | 68770 | 68273 | inactive
CG9896 | DRSC04594 | – | 51163 | 57197 | inactive
Or71a (Odorant receptor 71a) | DRSC11244 | – | 49147 | 39610 | inactive
CG43897 | DRSC10965 | – | 50650 | 43697 | inactive
CG43897 | DRSC10967 | – | 82303 | 80430 | inactive
Paip1 (Poly(A) binding protein interacting protein 1) | DRSC07302 | – | 44997 | 54063 | inactive
Miro (Mitochondrial Rho) | DRSC15795 | at least 2 SD above plate mean | 66237 | 72743 | active
betaNACtes4 (Nascent-associated complex beta-subunit-like, testis 4) | DRSC19801 | – | 4.05e5 | 3.69e5 | inactive
CG30151 | DRSC05888 | – | 1.64e5 | 98897 | inactive
CG8519 | DRSC10985 | – | 67810 | 61120 | inactive
CG11052 | DRSC14288 | – | 58460 | 57637 | inactive
